According to article PMC4936714:
Results are given in words; binding and its absence hold for the method and conditions named. In cells and extracts the contact can be indirect. Some entries that bind do so weakly or less than the wild type.

Chains of the proteins cited; added tags and fusions are not shown. Lines headed by an entry give the natural chain unless they say otherwise; changes in a name come on top. Residues count along the entry.
UniProt Q16740: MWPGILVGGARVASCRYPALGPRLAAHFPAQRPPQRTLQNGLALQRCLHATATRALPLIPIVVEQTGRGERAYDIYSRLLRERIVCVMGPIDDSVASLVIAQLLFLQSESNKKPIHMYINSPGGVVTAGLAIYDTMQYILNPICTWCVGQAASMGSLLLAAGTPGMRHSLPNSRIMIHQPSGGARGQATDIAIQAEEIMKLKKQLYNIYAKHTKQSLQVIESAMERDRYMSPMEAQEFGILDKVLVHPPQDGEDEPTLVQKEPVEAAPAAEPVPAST
UniProt O76031, residues 57-633: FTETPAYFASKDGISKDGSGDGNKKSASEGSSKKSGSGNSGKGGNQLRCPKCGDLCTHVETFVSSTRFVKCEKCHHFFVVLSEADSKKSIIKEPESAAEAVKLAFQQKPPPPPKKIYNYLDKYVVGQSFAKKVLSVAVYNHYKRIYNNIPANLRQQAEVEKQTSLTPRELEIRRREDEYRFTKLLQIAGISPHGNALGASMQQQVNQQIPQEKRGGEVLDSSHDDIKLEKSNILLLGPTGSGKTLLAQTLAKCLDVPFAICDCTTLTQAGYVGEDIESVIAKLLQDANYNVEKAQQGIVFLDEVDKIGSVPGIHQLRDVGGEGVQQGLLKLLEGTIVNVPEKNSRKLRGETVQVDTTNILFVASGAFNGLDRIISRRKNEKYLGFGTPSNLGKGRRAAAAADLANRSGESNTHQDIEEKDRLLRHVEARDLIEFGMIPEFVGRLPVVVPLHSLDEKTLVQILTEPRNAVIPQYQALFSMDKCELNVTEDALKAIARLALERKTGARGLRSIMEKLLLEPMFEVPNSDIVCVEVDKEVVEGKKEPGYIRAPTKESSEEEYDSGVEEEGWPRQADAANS

B1: succinate dehydrogenase B (SDHB), oxidative phosphorylation Complex II subunit (protein, UniProt P21912 29-280)
chain: AQTAAATAPRIKKFAIYRWDPDKAGDKPHMQTYEVDLNKCGPMVLDALIKIKNEVDSTLTFRRSCREGICGSCAMNINGGNTLACTRRIDTNLNKVSKIYPLPHMYVIKDLVPDLSNFYAQYKSIEPYLKKKDESQEGKQQYLQSIEEREKLDGLYECILCACCSTSCPSYWWNGDKYLGPAVLMQAYRWMIDSRDDFTEERLAKLQDPFSLYRCHTIMNCTRTCPKGLNPGKAIAEIKKMMATYKEKKASV
B2: TNFR-associated molecule-1 (TRAP-1) (protein, UniProt Q12931 60-704)
chain: STQTAEDKEEPLHSIISSTESVQGSTSKHEFQAETKKLLDIVARSLYSEKEVFIRELISNASDALEKLRHKLVSDGQALPEMEIHLQTNAEKGTITIQDTGIGMTQEELVSNLGTIARSGSKAFLDALQNQAEASSKIIGQFGVGFYSAFMVADRVEVYSRSAAPGSLGYQWLSDGSGVFEIAEASGVRTGTKIIIHLKSDCKEFSSEARVRDVVTKYSNFVSFPLYLNGRRMNTLQAIWMMDPKDVREWQHEEFYRYVAQAHDKPRYTLHYKTDAPLNIRSIFYVPDMKPSMFDVSRELGSSVALYSRKVLIQTKATDILPKWLRFIRGVVDSEDIPLNLSRELLQESALIRKLRDVLQQRLIKFFIDQSKKDAEKYAKFFEDYGLFMREGIVTATEQEVKEDIAKLLRYESSALPSGQLTSLSEYASRMRAGTRNIYYLCAPNRHLAEHSPYYEAMKKKDTEVLFCFEQFDELTLLHLREFDKKKLISVETDIVVDHYKEEKFEDRSPAAECLSEKETEELMAWMRNVLGSRVTNVKVTLRLDTHPAMVTVLEMGAARHFLRMQQLAKTQEERAQLLQPTLEINPRHALIKKLNQLRASEPGLAQLLVDQIYENAMIAAGLVDDPRAMVGRLNELLVKALERH

Tests used:
Assay in all cases: co-IP; mitochondrial extracts from PC3 cells immunoprecipitated with antibodies to survivin, ClpP or ClpX, or non-binding IgG; western blotting
[1] = target: ClpP, AAA+ peptidase subunit of the ClpXP complex (human (endogenous in PC3)) (UniProt Q16740)
[2] = target: survivin (human (endogenous in PC3)) (UniProt O15392)
[3] = target: ClpX, unfoldase subunit of the ClpXP complex (human (endogenous in PC3)) (UniProt O76031)

Molecule | binding [1] | binding [2] | binding [3]
survivin (from UniProt O15392 1-142) | binds |  | 
ClpP, AAA+ peptidase subunit of the ClpXP complex (from UniProt Q16740 57-277) (enzyme) |  | binds | 
B1 | binds |  | binds
B2 | binds | binds | 
